PubChem BioAssay AID624150 – Cancer Research UK Cambridge | 2012
Purpose: 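Effect of silencing chromatin genes on per-cell differentiation marker amount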 (primary screen). Cell system: primary human epidermal keratinocytes. Knock-down reagent: siRNA pool against human genes, 1-2 µM siRNA in 20 µl nucleofection. Time to read-out: 72 h after transfection plus 48 h differentiation (about 5 days). Conditions: five arms for 48 h: vehicle, AG1478 10 µM, BMP2/7 200 ng/ml, both together, or 10% serum. Measurement: 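Transglutaminase 1 immunostaining divided by DNA staining in each well, background removed, then z-scored versus every test siRNA on that plate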. Direction: z-score, vehicle and z-score, AG1478 10 µM: higher = more differentiation marker per cell.
Here is a random part of 331 reagents. 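Each arm had three replicate z-scores, but only the first replicate is printed; higher values mean more differentiation marker per cell.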 Further read-outs or replicates are left out here.

Depletion of TDRD6 (tudor domain containing 6) gave: z-score, vehicle 0.424; z-score, AG1478 10 µM -0.0483.
SMYD3 (SET and MYND domain containing 3) gave z-score, vehicle 0.00175; z-score, AG1478 10 µM 0.544.
TARBP1 (tRNA guanosine 2 -O-methyltransferase TARBP1) scored z-score, vehicle 0.467; z-score, AG1478 10 µM 0.05.
With knock-down of UHRF1 (ubiquitin like with PHD and ring finger domains 1), the screen gave z-score, vehicle 2.11; z-score, AG1478 10 µM 1.25.
PRMT6 (protein arginine methyltransferase 6) showed z-score, vehicle 0.515; z-score, AG1478 10 µM 0.605.
Against PHF3 (PHD finger protein 3), the entry reads z-score, vehicle 0.0122; z-score, AG1478 10 µM 0.178.
After knock-down of PYGO1 (pygopus family PHD finger 1), the record shows z-score, vehicle 0.466; z-score, AG1478 10 µM -0.0568.
Against PHF14 (PHD finger protein 14), the values are z-score, vehicle 1.02; z-score, AG1478 10 µM 1.78.
Silencing of NSD2 (nuclear receptor binding SET domain protein 2) resulted in: z-score, vehicle -0.113; z-score, AG1478 10 µM -0.484.
Against RAI1 (retinoic acid induced 1), the values are z-score, vehicle -0.655; z-score, AG1478 10 µM -0.732.
With knock-down of TRIM28 (tripartite motif containing 28) the results were z-score, vehicle -0.555; z-score, AG1478 10 µM -0.721.
PRDM1 (PR/SET domain 1) showed z-score, vehicle 0.269; z-score, AG1478 10 µM -0.755.

Already shown: entries from further up.
PHF3 (PHD finger protein 3) | z-score, vehicle: 0.0122; z-score, AG1478 10 µM: 0.178
PYGO1 (pygopus family PHD finger 1) | z-score, vehicle: 0.466; z-score, AG1478 10 µM: -0.0568
